No constants are given. Whether binding was seen depends on the method and setting.
Target: Human aldo-keto reductase 1B15 (AKR1B15.1) (human) (UniProt C9JRZ8)
Assay: SEC; Superdex 75 10/300 GL in storage buffer (200 mM potassium phosphate, pH 7.4, 5 mM EDTA, 5 mM DTT); AKR1B15 from the chaperone co-expressing strain, no sarkosyl; both purified

Protein sequences, listed by entry. Tags and fused reporters are not part of them. Lines headed by an entry give the natural chain unless they say otherwise; changes in a name come on top.
UniProt C9JRZ8: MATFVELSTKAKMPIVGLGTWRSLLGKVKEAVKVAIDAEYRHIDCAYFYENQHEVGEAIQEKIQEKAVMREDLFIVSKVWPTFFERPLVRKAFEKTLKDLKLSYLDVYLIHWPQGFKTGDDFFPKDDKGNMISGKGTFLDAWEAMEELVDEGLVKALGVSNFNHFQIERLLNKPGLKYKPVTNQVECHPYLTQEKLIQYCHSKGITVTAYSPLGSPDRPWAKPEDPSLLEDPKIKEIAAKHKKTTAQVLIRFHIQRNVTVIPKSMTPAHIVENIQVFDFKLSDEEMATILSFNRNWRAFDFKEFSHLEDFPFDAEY

For “Human aldo-keto reductase 1B15 (AKR1B15.1) (from UniProt C9JRZ8-1 1-316) (enzyme)”, the binding was “no binding”.
